# Test results taken from PubChem BioAssay (EPA / NIEHS).
# Sequences of proteins named here, by UniProt entry; tags and fusion partners are left off. A change or cut given only in a name is not applied to a line headed by its entry.
# UniProt P04150: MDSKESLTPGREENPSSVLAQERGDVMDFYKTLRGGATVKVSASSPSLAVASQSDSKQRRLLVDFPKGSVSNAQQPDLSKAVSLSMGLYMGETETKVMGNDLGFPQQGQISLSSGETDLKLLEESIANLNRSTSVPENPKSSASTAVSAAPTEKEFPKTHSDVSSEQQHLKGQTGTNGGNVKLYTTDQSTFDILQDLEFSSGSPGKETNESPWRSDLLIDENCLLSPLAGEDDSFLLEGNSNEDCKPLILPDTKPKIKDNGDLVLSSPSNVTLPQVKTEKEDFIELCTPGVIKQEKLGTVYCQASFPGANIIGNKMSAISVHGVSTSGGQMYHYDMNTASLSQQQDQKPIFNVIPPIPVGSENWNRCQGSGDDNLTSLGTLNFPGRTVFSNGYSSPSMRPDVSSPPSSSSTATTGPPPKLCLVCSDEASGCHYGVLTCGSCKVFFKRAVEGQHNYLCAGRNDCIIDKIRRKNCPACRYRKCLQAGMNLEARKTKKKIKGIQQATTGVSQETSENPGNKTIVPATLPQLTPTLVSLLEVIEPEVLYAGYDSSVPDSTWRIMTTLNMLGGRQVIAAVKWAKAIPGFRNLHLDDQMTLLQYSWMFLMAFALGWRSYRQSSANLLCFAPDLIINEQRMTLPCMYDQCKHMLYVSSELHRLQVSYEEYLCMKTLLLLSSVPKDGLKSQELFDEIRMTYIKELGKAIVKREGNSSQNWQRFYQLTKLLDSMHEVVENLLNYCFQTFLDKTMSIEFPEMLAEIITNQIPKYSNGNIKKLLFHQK
# UniProt Q96RI1: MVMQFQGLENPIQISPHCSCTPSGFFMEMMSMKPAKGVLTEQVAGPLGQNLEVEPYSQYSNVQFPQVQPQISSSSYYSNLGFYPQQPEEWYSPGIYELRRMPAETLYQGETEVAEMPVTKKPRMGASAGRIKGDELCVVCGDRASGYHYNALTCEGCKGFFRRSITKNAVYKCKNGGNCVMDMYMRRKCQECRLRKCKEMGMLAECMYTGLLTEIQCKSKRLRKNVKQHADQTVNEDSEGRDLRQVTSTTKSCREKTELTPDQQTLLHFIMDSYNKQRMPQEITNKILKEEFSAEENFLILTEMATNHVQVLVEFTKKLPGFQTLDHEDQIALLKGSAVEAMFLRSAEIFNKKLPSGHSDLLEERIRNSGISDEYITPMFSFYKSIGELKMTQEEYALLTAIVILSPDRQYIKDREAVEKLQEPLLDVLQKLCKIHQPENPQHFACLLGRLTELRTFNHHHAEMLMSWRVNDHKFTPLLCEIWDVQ
# UniProt Q13133, whole entry, looked up: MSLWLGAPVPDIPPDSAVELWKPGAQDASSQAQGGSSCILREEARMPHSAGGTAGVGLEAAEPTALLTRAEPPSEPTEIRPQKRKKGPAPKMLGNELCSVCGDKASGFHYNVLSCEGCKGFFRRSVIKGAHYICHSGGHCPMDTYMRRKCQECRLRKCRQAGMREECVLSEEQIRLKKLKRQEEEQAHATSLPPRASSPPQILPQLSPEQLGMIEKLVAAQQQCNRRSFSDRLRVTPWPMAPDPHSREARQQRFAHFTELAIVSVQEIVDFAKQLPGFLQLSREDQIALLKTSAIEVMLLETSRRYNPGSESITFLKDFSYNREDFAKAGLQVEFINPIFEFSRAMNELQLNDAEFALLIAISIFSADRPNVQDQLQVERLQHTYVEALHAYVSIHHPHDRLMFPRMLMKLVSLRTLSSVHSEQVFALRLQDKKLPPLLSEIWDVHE
# UniProt P55055, whole entry, looked up: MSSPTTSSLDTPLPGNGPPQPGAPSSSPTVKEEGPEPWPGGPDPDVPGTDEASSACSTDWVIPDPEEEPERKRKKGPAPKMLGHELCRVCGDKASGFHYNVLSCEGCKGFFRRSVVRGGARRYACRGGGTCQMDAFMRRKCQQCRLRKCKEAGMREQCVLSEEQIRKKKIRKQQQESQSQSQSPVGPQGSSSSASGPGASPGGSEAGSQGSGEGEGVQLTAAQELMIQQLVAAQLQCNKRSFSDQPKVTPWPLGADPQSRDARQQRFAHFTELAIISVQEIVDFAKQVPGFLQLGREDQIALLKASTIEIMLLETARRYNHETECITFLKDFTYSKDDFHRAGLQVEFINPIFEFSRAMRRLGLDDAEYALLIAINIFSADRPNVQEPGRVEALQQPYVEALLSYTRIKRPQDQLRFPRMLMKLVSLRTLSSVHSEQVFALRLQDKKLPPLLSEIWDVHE
# “And” between values parts separate entries of the source, which are not always exact repeats. Equal entries are not always repeated. Inconclusive means that the source gave no clear call. Such entries were picked first, then a sample of the others. A potency beside an inconclusive call is a rough fit, not a confirmed value. The source made the active and inactive calls. The calls were made as follows: active = hit-call score of the fitted dose curve at least 0.9, where 1 is the maximum; inconclusive = response in the unintended direction; inactive = score below 0.9.
# Target: Glucocorticoid receptor (Homo sapiens) (UniProt P04150)
# Assay: ATG_GR_TRANS: Attagene TRANS-FACTORIAL HepG2 Assay for human Glucocorticoid Receptor (GR) (AID 2282978);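 also: activators score as hits since higher reporter transcript over DMSO is fitted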
# Conditions: HepG2 Attagene TRANS GR reporter, mRNA transcription
# Procedure, shortened: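 Fluorescent capillary-electrophoresis quantitation of reporter mRNA is the readout, taken 24 h after dosing human HepG2 cells carrying transiently transfected GAL4-UAS reporter units activated by chimeric NR-GAL4 fusions; activity scored as induction over DMSO.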
Compound,AC50,outcome
C=CC(=C)CCCC(C)(C)OC(C)=O,,inactive
Cc1cc(C(C)(C)C)c(O)c(C(C)(C)C)c1,active: 100 µM and inconclusive: 60 µM,
Brc1nc2ccccc2s1,,inactive

# Target: Bile acid receptor (Homo sapiens) (UniProt Q96RI1)
# Assay: ATG_FXR_TRANS: Attagene TRANS-FACTORIAL HepG2 Assay for Farnesoid X Receptor (FXR) (AID 2282979);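 also: hits raise reporter mRNA above DMSO so AC50 marks FXR activation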
# Conditions: HepG2 Attagene TRANS FXR-GAL4 reporter transcription
# Procedure, shortened: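 Reporter transcripts from transfected HepG2 cells were measured 24 h after dosing, using RT-PCR with capillary electrophoresis of 6-FAM-labelled fragments. The read-out reflects activity of exogenous FXR-Gal4 chimera on GAL4-UAS units, with induction relative to DMSO.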
Compound,AC50,outcome
C1CCOC1,,inactive
C=CC(C)(O)CCC=C(C)C (stereo not given),,inactive
CCOC(C=C(C)CCC=C(C)C)OCC,inconclusive: 100 µM,
OCC1CCC(CO)CC1 (stereo not given),,inactive
CCCC(C)=O,inconclusive: 35.8 µM,
Brc1ccccn1,,inactive
CCOCCO,inconclusive: 0.00932 µM,
FC(F)(F)COCC(F)(F)F,,inactive
COC(=O)C1=C(C)NC(C)=C(C(=O)OCCN(C)Cc2ccccc2)C1c1cccc([N+](=O)[O-])c1 (stereo not given),active: 0.637 µM,
Cc1cc(C(C)(C)C)c(O)c(C(C)(C)C)c1,,inactive
Brc1nc2ccccc2s1,inconclusive: 100 µM,

# Target: Oxysterols receptor LXR-alpha (Homo sapiens) (UniProt Q13133)
# Assay: ATG_LXRa_TRANS: Attagene TRANS-FACTORIAL HepG2 Assay for human Liver X Receptor alpha (LXRa) (AID 2282980)
# Conditions: HepG2 Attagene TRANS reporter, LXRa transactivation
# Procedure, shortened: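 Chemical-induced reporter mRNA measured by RT-PCR with fluorescent labelling and capillary electrophoresis after 24 h dosing of transiently transfected HepG2 cells expressing exogenous NR-Gal4 chimeras; increases scored against DMSO baseline.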
Compound,AC50,outcome
CCCCCCCCCCCCCO,inconclusive: 103 µM,
C1CCOC1,inconclusive: 100 µM,
CCOC(C=C(C)CCC=C(C)C)OCC,inconclusive: 5.54 µM,
CC(C)(C)C1CCC(O)CC1 (stereo not given),,inactive
NC(=O)C(F)(F)C(F)(F)C(F)(F)C(F)(F)C(F)(F)C(F)(F)C(F)(F)F,,inactive
COC(OC)(C(=O)c1ccccc1)c1ccccc1,inconclusive: 100 µM,
COc1cccc(OC)c1C(=O)O,,inactive
OCC1CCC(CO)CC1 (stereo not given),,inactive
C#CC(O)C(CC)CCCC (stereo not given),,inactive
Brc1ccccn1,inconclusive: 100 µM,
CC(=O)O[C@@H]1C[C@@H]2CC[C@@]1(C)C2(C)C,,inactive
CCOCCO,inconclusive: 55.1 µM,
FC(F)(F)COCC(F)(F)F,inconclusive: 150 µM,
O=C1O[C@H]([C@@H](O)CO)C(O)=C1O,inconclusive: 25.9 µM,
COC(=O)C1=C(C)NC(C)=C(C(=O)OCCN(C)Cc2ccccc2)C1c1cccc([N+](=O)[O-])c1 (stereo not given),inconclusive: 8.31 µM,
CCCC(=O)OCCC(C)CCC=C(C)C (stereo not given),inconclusive: 100 µM,
CCCCCCCCCCCCCC(=O)OCC(O)CO (stereo not given),inconclusive: 100 µM,
Cc1cc(C(C)(C)C)c(O)c(C(C)(C)C)c1,,inactive
Brc1nc2ccccc2s1,inconclusive: 100 µM,

# Target: Oxysterols receptor LXR-beta (Homo sapiens) (UniProt P55055)
# Assay: ATG_LXRb_TRANS: Attagene TRANS-FACTORIAL HepG2 Assay for human Liver X Receptor beta (LXRb) (AID 2282981)
# Conditions: HepG2 Attagene TRANS GAL4-LXRb reporter, mRNA
# Procedure, shortened: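 After 24 h chemical treatment of transfected HepG2 cells carrying exogenous NR-Gal4 chimeras, reporter mRNA was quantified by fluorescent RT-PCR and capillary electrophoresis; activity taken as increase over DMSO controls.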
Compound,AC50,outcome
C1CCOC1,inconclusive: 100 µM,
CC(=O)OC/C=C(C)/C=C/C=C(C)/C=C/C1=C(C)CCCC1(C)C,inconclusive: 100 µM,
CC(C)(C)C1CCC(O)CC1 (stereo not given),,inactive
NC(=O)C(F)(F)C(F)(F)C(F)(F)C(F)(F)C(F)(F)C(F)(F)C(F)(F)F,inconclusive: 150 µM,
COC(OC)(C(=O)c1ccccc1)c1ccccc1,inconclusive: 9 µM,
COc1cccc(OC)c1C(=O)O,,inactive
C#CC(O)C(CC)CCCC (stereo not given),inconclusive: 48.1 µM,
Brc1ccccn1,,inactive
CC(=O)O[C@@H]1C[C@@H]2CC[C@@]1(C)C2(C)C,,inactive
CCOCCO,inconclusive: 48.5 µM,
FC(F)(F)COCC(F)(F)F,,inactive
O=C1CCC(N2C(=O)c3ccccc3C2=O)C(=O)N1 (stereo not given),inconclusive: 100 µM,
C=C(C)OC(C)=O,,inactive
C=C(C)C(=O)OCCOCCOCCOC(=O)C(=C)C,inconclusive: 100 µM,
Cc1cc(C(C)(C)C)c(O)c(C(C)(C)C)c1,,inactive
Brc1nc2ccccc2s1,inconclusive: 180 µM,
